This is one part of the list.
Compound: Cc1cc(ccc1-c1ccccc1)C(=O)N1CCCN(CC1)C(=O)CCl [compound 10]
Assay: probe-labelled cysteine peptide fold change vs DMSO (competition) (log2 fold change); higher = less target engagement (more negative = stronger competition)
Settings: THP-1, incubation time: 4 h
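Note: competitive profiling in live THP-1 cells: cysteine peptides tagged with an iodoacetamide desthiobiotin (IA-DTB) probe, intensity after compound treatment relative to DMSO-treated cells.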

Protein sequences, listed by entry. Tags and fused reporters are not part of them. Lines headed by an entry give the natural chain unless they say otherwise; changes in a name come on top.
UniProt Q8NFZ0: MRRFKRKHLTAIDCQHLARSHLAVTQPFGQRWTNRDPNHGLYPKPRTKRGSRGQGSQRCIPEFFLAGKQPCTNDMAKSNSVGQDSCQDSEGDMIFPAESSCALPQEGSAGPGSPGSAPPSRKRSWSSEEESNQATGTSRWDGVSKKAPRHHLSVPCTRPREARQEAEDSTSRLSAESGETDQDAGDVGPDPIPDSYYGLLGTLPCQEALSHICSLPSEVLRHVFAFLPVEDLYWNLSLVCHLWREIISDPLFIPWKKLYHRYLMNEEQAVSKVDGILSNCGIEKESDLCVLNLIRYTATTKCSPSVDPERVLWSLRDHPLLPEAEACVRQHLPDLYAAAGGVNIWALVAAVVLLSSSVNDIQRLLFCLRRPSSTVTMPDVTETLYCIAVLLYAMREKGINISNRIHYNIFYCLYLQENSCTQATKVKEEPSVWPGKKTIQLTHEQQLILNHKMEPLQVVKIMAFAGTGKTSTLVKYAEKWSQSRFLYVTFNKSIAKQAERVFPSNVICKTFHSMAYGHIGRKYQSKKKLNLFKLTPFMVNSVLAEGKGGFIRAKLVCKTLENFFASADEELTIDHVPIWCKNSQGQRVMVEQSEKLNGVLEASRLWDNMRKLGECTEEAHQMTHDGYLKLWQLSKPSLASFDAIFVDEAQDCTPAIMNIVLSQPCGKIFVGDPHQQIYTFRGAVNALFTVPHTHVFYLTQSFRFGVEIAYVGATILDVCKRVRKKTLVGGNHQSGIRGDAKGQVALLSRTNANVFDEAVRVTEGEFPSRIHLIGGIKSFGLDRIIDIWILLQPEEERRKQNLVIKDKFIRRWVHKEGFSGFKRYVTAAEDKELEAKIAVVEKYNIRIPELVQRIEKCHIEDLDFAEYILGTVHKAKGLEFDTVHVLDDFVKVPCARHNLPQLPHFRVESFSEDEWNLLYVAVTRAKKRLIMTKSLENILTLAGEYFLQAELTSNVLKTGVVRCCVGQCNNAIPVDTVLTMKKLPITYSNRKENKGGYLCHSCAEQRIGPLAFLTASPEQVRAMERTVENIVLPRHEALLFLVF
UniProt Q9NXK8: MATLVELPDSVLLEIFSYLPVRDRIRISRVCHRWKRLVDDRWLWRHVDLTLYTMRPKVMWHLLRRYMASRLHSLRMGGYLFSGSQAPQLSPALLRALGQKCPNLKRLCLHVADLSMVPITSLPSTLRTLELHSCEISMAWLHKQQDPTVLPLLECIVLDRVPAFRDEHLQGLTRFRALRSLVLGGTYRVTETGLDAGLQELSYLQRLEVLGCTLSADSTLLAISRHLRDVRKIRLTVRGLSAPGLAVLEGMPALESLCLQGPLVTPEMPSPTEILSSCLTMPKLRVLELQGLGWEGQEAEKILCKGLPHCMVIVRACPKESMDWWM
UniProt O94868: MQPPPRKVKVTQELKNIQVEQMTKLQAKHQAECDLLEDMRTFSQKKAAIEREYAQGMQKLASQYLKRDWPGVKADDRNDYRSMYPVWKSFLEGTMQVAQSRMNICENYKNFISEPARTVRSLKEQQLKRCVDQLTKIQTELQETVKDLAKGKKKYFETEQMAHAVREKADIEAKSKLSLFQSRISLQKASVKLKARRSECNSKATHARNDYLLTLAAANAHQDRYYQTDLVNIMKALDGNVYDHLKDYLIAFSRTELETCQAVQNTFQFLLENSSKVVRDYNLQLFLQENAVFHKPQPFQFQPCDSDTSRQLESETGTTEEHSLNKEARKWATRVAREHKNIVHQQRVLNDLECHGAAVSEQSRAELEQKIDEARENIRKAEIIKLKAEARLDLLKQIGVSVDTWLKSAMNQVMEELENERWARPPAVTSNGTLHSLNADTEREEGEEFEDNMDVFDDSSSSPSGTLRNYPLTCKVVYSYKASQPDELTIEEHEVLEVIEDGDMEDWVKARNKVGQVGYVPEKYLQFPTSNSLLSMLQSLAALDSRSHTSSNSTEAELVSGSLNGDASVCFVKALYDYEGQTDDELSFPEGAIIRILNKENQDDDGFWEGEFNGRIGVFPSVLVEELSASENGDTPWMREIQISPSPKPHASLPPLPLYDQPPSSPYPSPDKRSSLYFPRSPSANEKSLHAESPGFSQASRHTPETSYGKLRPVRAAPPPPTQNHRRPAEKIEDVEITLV
UniProt Q6P4F2: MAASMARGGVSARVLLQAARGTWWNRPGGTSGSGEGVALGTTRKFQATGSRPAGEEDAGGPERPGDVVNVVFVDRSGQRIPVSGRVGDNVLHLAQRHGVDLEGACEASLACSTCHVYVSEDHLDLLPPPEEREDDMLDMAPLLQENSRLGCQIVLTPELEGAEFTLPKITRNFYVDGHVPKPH
UniProt Q96IG2: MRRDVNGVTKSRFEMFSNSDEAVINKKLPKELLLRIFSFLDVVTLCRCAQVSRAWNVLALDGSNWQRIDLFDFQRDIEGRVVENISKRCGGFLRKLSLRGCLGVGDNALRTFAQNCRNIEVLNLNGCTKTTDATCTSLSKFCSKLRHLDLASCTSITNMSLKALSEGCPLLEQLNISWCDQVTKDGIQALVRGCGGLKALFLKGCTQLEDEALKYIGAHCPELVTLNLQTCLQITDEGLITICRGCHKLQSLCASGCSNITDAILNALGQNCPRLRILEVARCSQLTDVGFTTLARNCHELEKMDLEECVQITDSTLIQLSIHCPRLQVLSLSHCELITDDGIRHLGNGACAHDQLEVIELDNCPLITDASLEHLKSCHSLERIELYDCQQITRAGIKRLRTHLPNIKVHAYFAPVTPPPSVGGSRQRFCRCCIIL
UniProt Q96ME1: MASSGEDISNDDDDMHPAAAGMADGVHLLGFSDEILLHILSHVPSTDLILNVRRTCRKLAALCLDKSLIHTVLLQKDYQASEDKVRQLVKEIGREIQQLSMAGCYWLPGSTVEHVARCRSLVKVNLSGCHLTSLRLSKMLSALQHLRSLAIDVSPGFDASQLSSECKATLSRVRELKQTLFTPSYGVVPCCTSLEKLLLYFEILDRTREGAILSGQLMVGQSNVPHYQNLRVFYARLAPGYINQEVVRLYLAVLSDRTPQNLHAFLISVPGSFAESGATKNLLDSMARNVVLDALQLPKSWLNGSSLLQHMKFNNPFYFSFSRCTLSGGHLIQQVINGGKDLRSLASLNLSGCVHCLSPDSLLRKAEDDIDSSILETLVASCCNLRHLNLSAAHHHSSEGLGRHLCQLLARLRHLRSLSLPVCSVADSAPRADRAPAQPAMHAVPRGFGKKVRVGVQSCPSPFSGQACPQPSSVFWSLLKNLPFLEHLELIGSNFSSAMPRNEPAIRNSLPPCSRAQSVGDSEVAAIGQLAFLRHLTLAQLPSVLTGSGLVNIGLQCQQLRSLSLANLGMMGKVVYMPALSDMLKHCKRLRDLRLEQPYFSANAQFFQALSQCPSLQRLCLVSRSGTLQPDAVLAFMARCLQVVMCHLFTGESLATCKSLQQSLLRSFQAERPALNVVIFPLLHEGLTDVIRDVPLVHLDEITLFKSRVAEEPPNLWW
UniProt Q6ZRV2: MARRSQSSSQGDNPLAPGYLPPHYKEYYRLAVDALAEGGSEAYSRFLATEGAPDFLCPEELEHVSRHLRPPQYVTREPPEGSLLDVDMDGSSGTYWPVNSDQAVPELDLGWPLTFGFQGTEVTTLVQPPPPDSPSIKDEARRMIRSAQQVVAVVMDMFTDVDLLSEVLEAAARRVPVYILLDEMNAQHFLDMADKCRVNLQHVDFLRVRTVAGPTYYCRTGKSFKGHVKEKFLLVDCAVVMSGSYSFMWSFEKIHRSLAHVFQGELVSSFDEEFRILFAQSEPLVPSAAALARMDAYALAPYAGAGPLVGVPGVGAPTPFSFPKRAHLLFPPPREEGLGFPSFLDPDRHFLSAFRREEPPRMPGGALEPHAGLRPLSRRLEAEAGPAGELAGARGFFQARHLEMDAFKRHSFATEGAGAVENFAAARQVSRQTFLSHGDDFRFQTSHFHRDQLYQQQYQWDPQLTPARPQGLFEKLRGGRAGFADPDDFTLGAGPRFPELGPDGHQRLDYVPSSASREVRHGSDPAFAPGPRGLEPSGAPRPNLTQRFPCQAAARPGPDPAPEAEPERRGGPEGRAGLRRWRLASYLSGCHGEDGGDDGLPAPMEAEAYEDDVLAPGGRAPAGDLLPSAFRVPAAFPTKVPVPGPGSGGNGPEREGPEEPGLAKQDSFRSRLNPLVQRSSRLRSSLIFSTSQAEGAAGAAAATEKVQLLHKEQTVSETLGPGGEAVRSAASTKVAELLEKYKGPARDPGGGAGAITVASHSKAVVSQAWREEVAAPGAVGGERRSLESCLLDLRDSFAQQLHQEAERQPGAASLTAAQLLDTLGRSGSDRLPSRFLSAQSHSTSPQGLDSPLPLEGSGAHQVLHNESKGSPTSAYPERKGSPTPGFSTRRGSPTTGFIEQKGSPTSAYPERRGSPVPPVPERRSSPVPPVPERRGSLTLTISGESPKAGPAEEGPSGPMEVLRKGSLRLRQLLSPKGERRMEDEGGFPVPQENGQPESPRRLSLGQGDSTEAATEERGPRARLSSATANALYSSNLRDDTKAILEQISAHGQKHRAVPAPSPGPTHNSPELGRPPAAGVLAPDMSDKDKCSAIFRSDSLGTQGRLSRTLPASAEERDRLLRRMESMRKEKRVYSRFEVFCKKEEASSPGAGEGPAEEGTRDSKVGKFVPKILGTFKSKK
UniProt Q658Y4: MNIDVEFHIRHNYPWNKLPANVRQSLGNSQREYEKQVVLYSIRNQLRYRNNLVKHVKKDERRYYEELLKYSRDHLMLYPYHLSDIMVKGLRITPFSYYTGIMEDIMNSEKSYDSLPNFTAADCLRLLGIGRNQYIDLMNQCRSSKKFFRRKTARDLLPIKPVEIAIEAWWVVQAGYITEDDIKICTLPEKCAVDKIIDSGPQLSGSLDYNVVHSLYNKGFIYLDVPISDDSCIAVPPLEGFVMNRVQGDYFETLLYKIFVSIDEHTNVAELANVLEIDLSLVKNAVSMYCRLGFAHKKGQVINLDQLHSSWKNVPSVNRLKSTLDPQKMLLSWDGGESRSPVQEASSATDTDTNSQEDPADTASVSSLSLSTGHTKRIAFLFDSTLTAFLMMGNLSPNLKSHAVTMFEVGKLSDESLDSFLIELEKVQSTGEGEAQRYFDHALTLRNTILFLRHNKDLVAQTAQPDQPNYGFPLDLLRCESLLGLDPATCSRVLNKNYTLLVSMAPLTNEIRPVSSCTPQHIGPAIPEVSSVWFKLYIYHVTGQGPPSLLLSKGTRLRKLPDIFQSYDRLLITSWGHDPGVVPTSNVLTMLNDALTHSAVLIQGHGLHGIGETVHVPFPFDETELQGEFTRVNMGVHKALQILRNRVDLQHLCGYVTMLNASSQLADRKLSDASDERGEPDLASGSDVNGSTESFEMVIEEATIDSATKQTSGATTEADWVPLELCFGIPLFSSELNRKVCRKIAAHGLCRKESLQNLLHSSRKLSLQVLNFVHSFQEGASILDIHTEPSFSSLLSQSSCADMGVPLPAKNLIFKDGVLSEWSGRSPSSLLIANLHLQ
UniProt Q96C11: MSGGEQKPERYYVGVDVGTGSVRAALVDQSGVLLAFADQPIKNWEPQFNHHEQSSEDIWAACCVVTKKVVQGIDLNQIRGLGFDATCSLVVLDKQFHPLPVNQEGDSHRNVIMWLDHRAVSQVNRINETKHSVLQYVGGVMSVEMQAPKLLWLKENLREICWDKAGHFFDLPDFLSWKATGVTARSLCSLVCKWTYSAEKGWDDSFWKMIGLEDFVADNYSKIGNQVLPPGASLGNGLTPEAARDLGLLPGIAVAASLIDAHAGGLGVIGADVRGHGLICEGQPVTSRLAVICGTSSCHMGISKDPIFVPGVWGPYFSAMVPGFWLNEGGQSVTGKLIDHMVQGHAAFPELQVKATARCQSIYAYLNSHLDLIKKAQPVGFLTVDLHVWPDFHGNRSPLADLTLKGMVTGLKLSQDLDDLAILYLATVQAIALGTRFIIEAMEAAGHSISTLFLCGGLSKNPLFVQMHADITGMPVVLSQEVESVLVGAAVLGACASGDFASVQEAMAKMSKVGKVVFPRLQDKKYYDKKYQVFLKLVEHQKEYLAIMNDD
UniProt P09467: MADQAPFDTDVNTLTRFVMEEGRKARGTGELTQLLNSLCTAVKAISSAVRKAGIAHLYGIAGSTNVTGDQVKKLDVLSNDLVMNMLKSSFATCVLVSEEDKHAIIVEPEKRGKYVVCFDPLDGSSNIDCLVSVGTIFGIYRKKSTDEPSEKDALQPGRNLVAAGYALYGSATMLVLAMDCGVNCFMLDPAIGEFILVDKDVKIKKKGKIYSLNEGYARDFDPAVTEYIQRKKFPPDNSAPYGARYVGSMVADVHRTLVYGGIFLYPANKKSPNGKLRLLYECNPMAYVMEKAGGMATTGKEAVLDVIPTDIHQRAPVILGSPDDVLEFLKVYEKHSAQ

Row | Target | probe-labelled cysteine peptide fold change (10 µM) | probe-labelled cysteine peptide fold change (50 µM)
1 | FBH1_Q8NFZ0_580_TLENFFASADEELTIDHVPIWCK (UniProt Q8NFZ0) | -0.0464 | -0.0926
2 | FBXL12_Q9NXK8_155_QQDPTVLPLLECIVLDR (UniProt Q9NXK8) | 0.0367 | 0.365
3 | FAM136A_Q96C01_53_QVHQCIER (UniProt Q96C01) | -0.0673 | 0.077
4 | FCHSD2_O94868_200_SECNSK (UniProt O94868) | -0.126 | -0.158
5 | FDX2_Q6P4F2_154_LGCQIVLTPELEGAEFTLPK (UniProt Q6P4F2) | 0.0206 | 0.216
6 | FBXL20_Q96IG2_378_SCHSLER (UniProt Q96IG2) | 0.0657 | -0.069
7 | FBXL18_Q96ME1_406_HLCQLLAR (UniProt Q96ME1) | -0.0799 | -0.264
8 | FAM83H_Q6ZRV2_789_SLESCLLDLR (UniProt Q6ZRV2) | -0.117 | 0.762
9 | FGB_P02675_437_CHAANPNGR (UniProt P02675) | -0.463 | -0.386
10 | FASN_P49327_1558_HAQPTCPGAQLCTVYYASLNFR (UniProt P49327) | -0.309 | -0.347
11 | FAM91A1_Q658Y4_232_GFIYLDVPISDDSCIAVPPLEGFVMNR (UniProt Q658Y4) | 0.185 | 0.213
12 | FGGY_Q96C11_280_GHGLICEGQPVTSR (UniProt Q96C11) | 0.187 | -0.101
13 | FARSB_Q9NSD9_195_EYTACELMNIYK (UniProt Q9NSD9) | -0.0615 | -0.222
14 | FBP1_P09467_282_LLYECNPMAYVMEK (UniProt P09467) | -0.0204 | -0.0851
15 | FBP1_P09467_39_GTGELTQLLNSLCTAVK (UniProt P09467) | 0.313 | 0.0646

Quoted from above: entries 2 to 4
Row | Target | probe-labelled cysteine peptide fold change (10 µM) | probe-labelled cysteine peptide fold change (50 µM)
2 | FBXL12_Q9NXK8_155_QQDPTVLPLLECIVLDR (UniProt Q9NXK8) | 0.0367 | 0.365
3 | FAM136A_Q96C01_53_QVHQCIER (UniProt Q96C01) | -0.0673 | 0.077
4 | FCHSD2_O94868_200_SECNSK (UniProt O94868) | -0.126 | -0.158

From the supplement of paper PMC12067093, “Discovery and optimisation of a covalent ligand for TRIM25 and its application to targeted protein ubiquitination” (Chemical Science, 2025)
